Measurements reported in PubChem BioAssay AID504784 (Drosophila RNAi Screening Center, 2011)

Aim: 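Fly genes whose silencing alters how much lipid cells keep in droplets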 (primary screen)
Cell system: Drosophila Kc167 embryonic cells
Knock-down reagent: long dsRNA against Drosophila genes, about 250 ng dsRNA per well
Timing: 4 days
Conditions: cells fed 400 µM oleic acid bound to BSA
Measured: 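Microscope images give a droplet-to-nucleus area ratio, taken as log and converted to a screen-wide B-score; higher values mean greater lipid storage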
Direction: droplet/nuclear area B-score: higher = more stored lipid (overstorage)
In all, the deposit lists about 17,000 reagents; shown is an unselected part of those with a known target gene and a result. 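Each column is one replicate's B-score; the combined score over replicates was not deposited, so single values may mislead.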 Reagents against one gene are numbered here. A plus sign joins genes that one reagent is predicted to hit. Not all columns of the deposit are shown.

Gene | dsRNA no. | droplet/nuclear area B-score, replicate 1
Spn77Bb + Spn77Bc | 1 | -0.694
Spn77Bb + Spn77Bc | 2 | -0.098
Ugt317A1 | 1 | -1.98
Trim9 | 1 | 0.559
Ufd1 | 1 | 1.56
CG42818 + Ca-Ma2d | 1 | 0.506
CG42820 + CG42819 | 1 | 1.22
CG42820 + CG42819 | 2 | 0.791
CG6550 | 1 | -0.228
Gmppa | 1 | -0.603
CG18549 | 1 | -0.855
CG32487 | 1 | -0.206
Obp58b | 1 | 0.321
CG8750 | 1 | 0.494
Obp83g | 1 | 0.0959
Dhdds | 1 | 0.555
zen2 | 1 | -0.00126
Naam | 1 | -0.0321
inaF-B + inaF-D + inaF-C + 1 more | 1 | 0.108
CG8547 | 1 | -0.27
sand | 1 | 1.56
CG3592 | 1 | -0.716
Met75Ca + Met75Cb | 1 | 2.64
Met75Ca + Met75Cb | 2 | -1.36
Mdh1 (retired record) | 1 | -0.736
CG13744 | 1 | 0.53
CG34165 | 1 | 0.91
Synd | 1 | 3.67
pim | 1 | -1.25
CG33108 | 1 | 0.427
sxc | 1 | -2.57
Jarid2 | 1 | -0.154
cpa | 1 | 1.13
CG32160 (retired record) | 1 | 0.0543

5 successive reagents from above:
Gene | dsRNA no. | droplet/nuclear area B-score, replicate 1
Obp83g | 1 | 0.0959
Dhdds | 1 | 0.555
zen2 | 1 | -0.00126
Naam | 1 | -0.0321
inaF-B + inaF-D + inaF-C + 1 more | 1 | 0.108
